Results published in US20220041999A1 (NEOGENE THERAPEUTICS B V, published 2022).
Blank lines part the entries; values can stand above or below the binder they belong to.

Assays:
GCN4-mDHFRmt_B = molecular target: T1, GCN4-mDHFRmt_B; test: cell-based or functional assay
T1 chain: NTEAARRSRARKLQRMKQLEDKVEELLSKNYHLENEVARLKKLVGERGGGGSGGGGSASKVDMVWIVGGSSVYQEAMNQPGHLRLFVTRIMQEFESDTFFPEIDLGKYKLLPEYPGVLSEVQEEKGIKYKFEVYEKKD

GCN4-mDHFRmt_B-2A = molecular target: T2, GCN4-mDHFRmt_B-2A; test: cell-based or functional assay
T2 chain: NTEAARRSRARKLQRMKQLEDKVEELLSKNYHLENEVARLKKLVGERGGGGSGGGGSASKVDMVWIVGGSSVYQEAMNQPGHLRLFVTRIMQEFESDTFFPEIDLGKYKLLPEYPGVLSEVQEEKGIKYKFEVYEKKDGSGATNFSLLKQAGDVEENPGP

fold enrichment of double transduced T cells (FACS), BC45, 25 nM MTX 4 days (GCN4-mDHFRmt_B): 3.7 fold
fold enrichment of double transduced T cells (FACS), BC45, 50 nM MTX 4 days (GCN4-mDHFRmt_B): 6.1 fold
fold enrichment of double transduced T cells (FACS), BC45, further 100 nM MTX 3 days, row 2 (GCN4-mDHFRmt_B): 8.4 fold
fold enrichment of double transduced T cells (FACS), BC45, further 100 nM MTX 3 days, row 3 (GCN4-mDHFRmt_B): 9.7 fold
fold enrichment of double transduced T cells (FACS), BC46, 25 nM MTX 4 days (GCN4-mDHFRmt_B): 2.9 fold
fold enrichment of double transduced T cells (FACS), BC46, 50 nM MTX 4 days (GCN4-mDHFRmt_B): 5.2 fold
fold enrichment of double transduced T cells (FACS), BC46, further 100 nM MTX 3 days, row 2 (GCN4-mDHFRmt_B): 6 fold
fold enrichment of double transduced T cells (FACS), BC46, further 100 nM MTX 3 days, row 3 (GCN4-mDHFRmt_B): 8.1 fold
B1: GCN4-mDHFRmt_A (other)
chain: NTEAARRSRARKLQRMKQLEDKVEELLSKNYHLENEVARLKKLVGERGGGGSGGGGSMVRPLNCIVAVSQNMGIGKNGDFPWPPLRNESKYFQRMTTTSSVEGKQNLVIMGRKTWFSIPEKNRPLKDRINIVLSRELKEPPRGAHFLAKSLDDALRLIEQPEL

fold enrichment of double transduced T cells (FACS), BC45, 50 nM MTX 4 days (GCN4-mDHFRmt_B-2A): 12 fold
fold enrichment of double transduced T cells (FACS), BC45, further 100 nM MTX 3 days, row 2 (GCN4-mDHFRmt_B-2A): 29 fold
fold enrichment of double transduced T cells (FACS), BC45, further 100 nM MTX 3 days, row 3 (GCN4-mDHFRmt_B-2A): 138 fold
fold enrichment of double transduced T cells (FACS), BC46, 50 nM MTX 4 days (GCN4-mDHFRmt_B-2A): 5.9 fold
fold enrichment of double transduced T cells (FACS), BC46, further 100 nM MTX 3 days, row 2 (GCN4-mDHFRmt_B-2A): 5.7 fold
fold enrichment of double transduced T cells (FACS), BC46, further 100 nM MTX 3 days, row 3 (GCN4-mDHFRmt_B-2A): 26.1 fold
B2: GCN4-mDHFRmt_A-2A (other)
chain: NTEAARRSRARKLQRMKQLEDKVEELLSKNYHLENEVARLKKLVGERGGGGSGGGGSMVRPLNCIVAVSQNMGIGKNGDFPWPPLRNESKYFQRMTTTSSVEGKQNLVIMGRKTWFSIPEKNRPLKDRINIVLSRELKEPPRGAHFLAKSLDDALRLIEQPELGSGATNFSLLKQAGDVEENPGP
